The text below walks through data of paper PMC9789103.

Sequences of proteins named here, by UniProt entry; tags and fusion partners are left off.
UniProt P51960: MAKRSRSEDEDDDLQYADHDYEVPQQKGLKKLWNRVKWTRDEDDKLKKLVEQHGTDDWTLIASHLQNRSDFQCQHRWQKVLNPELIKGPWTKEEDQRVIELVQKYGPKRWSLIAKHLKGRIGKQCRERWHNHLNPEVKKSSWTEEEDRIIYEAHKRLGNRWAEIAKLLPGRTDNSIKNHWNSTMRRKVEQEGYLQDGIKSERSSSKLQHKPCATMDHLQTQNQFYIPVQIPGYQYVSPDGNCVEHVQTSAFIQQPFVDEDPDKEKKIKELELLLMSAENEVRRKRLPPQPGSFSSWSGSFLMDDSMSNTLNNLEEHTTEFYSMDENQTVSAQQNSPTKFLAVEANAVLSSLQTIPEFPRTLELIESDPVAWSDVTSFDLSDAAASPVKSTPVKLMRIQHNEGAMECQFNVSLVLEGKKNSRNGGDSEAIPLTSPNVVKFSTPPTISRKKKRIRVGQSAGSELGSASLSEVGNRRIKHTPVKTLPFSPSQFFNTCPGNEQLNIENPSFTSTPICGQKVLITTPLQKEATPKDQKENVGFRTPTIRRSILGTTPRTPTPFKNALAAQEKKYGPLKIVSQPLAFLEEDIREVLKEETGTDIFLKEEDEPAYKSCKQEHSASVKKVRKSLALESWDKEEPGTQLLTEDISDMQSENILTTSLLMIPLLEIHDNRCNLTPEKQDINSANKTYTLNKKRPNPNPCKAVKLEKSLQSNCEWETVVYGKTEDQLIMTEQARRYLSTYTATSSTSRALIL

No constants are given. Whether binding was seen depends on the method and setting. In cells and extracts the contact can be indirect. Some binding calls cover weakened binding; strength is not graded here. Tags and fused reporters may be left off the sequences shown.

The assay deals with T1, TESMIN-BioID2-3xFLAG (mouse) (UniProt Q9WTJ6).
T1 sequence: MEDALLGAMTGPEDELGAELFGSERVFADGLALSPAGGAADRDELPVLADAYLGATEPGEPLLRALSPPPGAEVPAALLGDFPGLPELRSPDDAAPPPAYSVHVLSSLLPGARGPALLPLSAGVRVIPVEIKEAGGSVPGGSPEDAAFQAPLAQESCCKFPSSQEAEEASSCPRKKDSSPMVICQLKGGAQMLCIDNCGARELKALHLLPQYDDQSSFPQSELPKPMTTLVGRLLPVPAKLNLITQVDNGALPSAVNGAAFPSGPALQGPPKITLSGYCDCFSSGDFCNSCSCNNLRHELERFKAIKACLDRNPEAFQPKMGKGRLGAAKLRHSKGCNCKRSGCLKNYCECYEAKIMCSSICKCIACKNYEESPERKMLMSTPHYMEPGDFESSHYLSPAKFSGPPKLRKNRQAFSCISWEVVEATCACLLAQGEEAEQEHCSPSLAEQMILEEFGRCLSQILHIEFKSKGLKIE
The assay is described as follows: co-IP; anti-FLAG immunoprecipitation from BioID2-Tg lysate, immunoblot for MYBL1, LIN9, DVL2; also immunoprecipitation with anti-MYBL1, -LIN9 and -DVL2 antibodies, immunoblot for TESMIN-BioID2-3xFLAG; NP40 lysis buffer, 1 h at 4 °C.

With MYBL1 (from UniProt P51960 1-751), the binding entry is listed as “binds”.

B1: LIN9 (protein, UniProt Q8C735 1-542)
chain: MAELDQLPDESSSAKALVSLKEGSLSNTWNEKYSSLQKTPVWKGRNAGPAVEMPFRNSKRSRLFSDEDDRQINTKSPKRNQRVAMIPQKFTATMSTPDKKASQKIGFRLRNLLKLPKAHKWCIYEWFYSNIDKPLFEGDNDFCVCLKESFPNLKTRKLTRVEWGKIRRLMGKPRRCSSAFFEEERSALKQKRQKIRLLQQRKVADVSQFKDLPDEIPLPLVIGTKVTARLRGIHDGLFTGQIDAVDTLNATYRVTFDRTGLGTHTIPDYEVLSNEPHETMPISAFGQKQRPSRFFMTPPRLHYTPPLQSPITDGDPLLGQSPWRSKVSGSDTETLGGFPVEFLIQVTKLSKILMIKKEHIKKLREMNTEAEKLKSYSMPIGIEFQRRYATIVLELEQLNKDLNKVLHKVQQYCYELAPDQGLQPADQPTDMRRRCEEEAQEIVRQANSASGQPCVENENLTDLISRLTAILLQIKCLAEGGDLNSFEFKSLTDSLNDIKNTIDASNISCFQNNVEIHVAHIQSGLSQMGNLHAFAANNTNRD
B1: the binding result is reported as “binds”.
